Measured data: PubChem BioAssay AID1259308 (NCATS, 2017)
Screen: 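Genes whose loss raises luciferase production in HEK293 cells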 (primary screen). Cell system: human HEK293 embryonic kidney cells stably expressing firefly luciferase (HEK-CMV-Luc2-Hygro). Knock-down reagent: single siRNA against human genes, 0.8 pmol siRNA per well. Timing: 72 h. Detection: 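Reporter luminescence and viable-cell signal on separate replicate plates, given as percent of non-targeting control and median/MAD z-scores, plus per-cell luciferase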. Direction: total luciferase, z-score: higher = more reporter protein produced. Call rule: 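An siRNA counts as active if its total luciferase robust z-score exceeds 3; genes with two or more such siRNAs out of three were retested with fresh siRNAs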. Meaning of the calls: active = raised luciferase; inactive = no rise.
The deposit covers about 59,000 reagents; this is a random part of them. Over the whole deposit, about 1,510 (2.6%) are marked active. 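Calls use total luciferase alone and ignore viability, so some active siRNAs may act by altering cell number.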 Entries without a mark were called inactive. The numbers tell different reagents against one gene apart. Not all columns of the deposit are shown.

{"gene": "PCDHB13", "siRNA no.": 1, "total luciferase, z-score": 0.65}
{"gene": "PCDHB13", "siRNA no.": 2, "total luciferase, z-score": 0.0847}
{"gene": "PCDHB13", "siRNA no.": 3, "total luciferase, z-score": 1.96}
{"gene": "APOBEC3H", "siRNA no.": 1, "total luciferase, z-score": "3.54 (active)"}
{"gene": "APOBEC3H", "siRNA no.": 2, "total luciferase, z-score": "3.57 (active)"}
{"gene": "APOBEC3H", "siRNA no.": 3, "total luciferase, z-score": 0.355}
{"gene": "ASAH2", "siRNA no.": 1, "total luciferase, z-score": -2.01}
{"gene": "ASAH2", "siRNA no.": 2, "total luciferase, z-score": 0.194}
{"gene": "ASAH2", "siRNA no.": 3, "total luciferase, z-score": -0.00833}

Continued; the last 3 above are carried over.
{"gene": "ASAH2", "siRNA no.": 1, "total luciferase, z-score": -2.01}
{"gene": "ASAH2", "siRNA no.": 2, "total luciferase, z-score": 0.194}
{"gene": "ASAH2", "siRNA no.": 3, "total luciferase, z-score": -0.00833}
{"gene": "TANC1", "siRNA no.": 1, "total luciferase, z-score": 1.08}
{"gene": "TANC1", "siRNA no.": 2, "total luciferase, z-score": -0.645}
{"gene": "TANC1", "siRNA no.": 3, "total luciferase, z-score": -1.58}
{"gene": "ITIH5", "siRNA no.": 1, "total luciferase, z-score": 0.161}
{"gene": "ITIH5", "siRNA no.": 2, "total luciferase, z-score": 0.812}
{"gene": "ITIH5", "siRNA no.": 3, "total luciferase, z-score": -0.511}
{"gene": "SELENOS", "siRNA no.": 1, "total luciferase, z-score": 0.358}
{"gene": "SELENOS", "siRNA no.": 2, "total luciferase, z-score": 0.0188}
{"gene": "SELENOS", "siRNA no.": 3, "total luciferase, z-score": -0.0973}
{"gene": "OR2T2", "siRNA no.": 1, "total luciferase, z-score": -0.923}
{"gene": "OR2T2", "siRNA no.": 2, "total luciferase, z-score": 0.713}
{"gene": "OR2T2", "siRNA no.": 3, "total luciferase, z-score": 0.403}
